The list shows a part of the results.

Chains of the proteins cited; added tags and fusions are not shown.
UniProt Q0JBA9, entry or part of it: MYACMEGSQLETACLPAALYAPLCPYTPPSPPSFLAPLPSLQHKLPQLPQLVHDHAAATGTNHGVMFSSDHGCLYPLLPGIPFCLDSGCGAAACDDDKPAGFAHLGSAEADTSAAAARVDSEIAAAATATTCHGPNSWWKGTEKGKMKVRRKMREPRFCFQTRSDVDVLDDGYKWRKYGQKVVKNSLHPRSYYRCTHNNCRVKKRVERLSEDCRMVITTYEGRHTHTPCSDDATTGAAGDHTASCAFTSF

The assay addresses OsWRKY34 (Oryza sativa, UniProt Q0JBA9 1-250). The assay can be described thus: protein-binding microarray (RPBM); PBS, 2% BSA, 51.3 ng/ul salmon testes DNA, 50 uM zinc acetate, 200 nM TF, 25 C, 1 h; high values mean tight binding. The note with it: protein: recombinant; tags: N-terminal polyhistidine and DsRed monomer fusion (pET32a); label: CyDye5-dUTP incorporated in the synthesized complementary strand; 3' TTTTT single-stranded linker to array surface; dsDNA, one strand shown. In a few lines: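 The binding signal is fluorescence intensity per array feature (arbitrary units). Readings came from an Axon 4000B scanner after a washed, 2% BSA-blocked, double-stranded custom Agilent array had been incubated for 1 h at 25 °C with 200 nM protein and 50 µM zinc acetate. The protein was a Ni–NTA-purified transcription factor fused N-terminally to polyhistidine and DsRed, expressed in E. coli BL21-CodonPlus.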
As for “CCATTCCATACGTCCACATTCGTAGTTGTAGTATAGGTCTCGGAGTCACCTAGTGCAG”, the binding signal was 8360 fluorescence intensity (a.u.).

On to “GCTTGACGACACCATTCGGATTGTTCCATCACTTCCATACCGGAGTCACCTAGTGCAG”, for which the binding signal is 9560 fluorescence intensity (a.u.). For “GAAGCTAATCTCACATGTCCATTTGTTCTGATGAAGGTTACGGAGTCACCTAGTGCAG”, the binding signal is 8390 fluorescence intensity (a.u.). As for “GAGTAACTCAACTGTAATCAACCATTCGTCCATATATTGCCGGAGTCACCTAGTGCAG”, the binding signal was 8060 fluorescence intensity (a.u.). In the case of “AAGTTGGCAGGTCTGGTTGGCGTTACTTGGAGATAGGTTTCGGAGTCACCTAGTGCAG”, the binding signal was 10600 fluorescence intensity (a.u.). On to “TCAGTTGTTTGTCATGAGGAAAATTCCAAATCTCCTCCAACGGAGTCACCTAGTGCAG”, for which the binding signal is 8390 fluorescence intensity (a.u.). For “TCCCTCGTGACCTCGTCTCGTCGGTTCGTCGCTCTCTCCGCGGAGTCACCTAGTGCAG”, the binding signal was 8280 fluorescence intensity (a.u.). Then “TGCTGACTTTGTTTGACTATGTTAAAGCCCTATATATTAGCGGAGTCACCTAGTGCAG”, with 8130 fluorescence intensity (a.u.). As for “TCTCTCCTTTTCTTTTCTCTCACTTTCTTCCTCAGTCGGCCGGAGTCACCTAGTGCAG”, the binding signal is 8170 fluorescence intensity (a.u.). With “GAAGACTCCGCCTCCGCGCTATTCTCTCCTCCTCACGTCTCGGAGTCACCTAGTGCAG”, the binding signal is 8060 fluorescence intensity (a.u.). Consider “GCATCGTGGGGTGTGGGTGGCGGTTTTGGAGGGGAGAGGTCGGAGTCACCTAGTGCAG”, for which the binding signal is 23200 fluorescence intensity (a.u.). For “TGCTGATACCGAGACACCTCATCCCTTTCACCGCGGTATCCGGAGTCACCTAGTGCAG” the value was 8910 fluorescence intensity (a.u.). As for “TCAAGGTTCCTTCGTCGCTTTTATTGCTTGATGATTCTCTCGGAGTCACCTAGTGCAG”, the binding signal was 8780 fluorescence intensity (a.u.). With “GTTCTCCATCCCAACGACCGCTCGCCGTTTTCGTCGTGGGCGGAGTCACCTAGTGCAG”, the binding signal is 8150 fluorescence intensity (a.u.). In the case of “ATTTTTCCAGCGCCTTGCATGCCGTGTTCTTCTCGCCGCGCGGAGTCACCTAGTGCAG”, the binding signal is 10600 fluorescence intensity (a.u.). Take “CGGGCTAGTTTTGTTTGGTTTCATACAGGGTGTTGGGAGGCGGAGTCACCTAGTGCAG”: the binding signal was 8970 fluorescence intensity (a.u.). For the sequence “AATACTCCCTCCGTCCCACTAAAAGTGTCGTTCTATGTCCCGGAGTCACCTAGTGCAG”, the binding signal was 8420 fluorescence intensity (a.u.). For “GCCTCATTACATTTATATATTGTTTCAAATACTGTAGCAACGGAGTCACCTAGTGCAG” the value was 10800 fluorescence intensity (a.u.); for “TATGAAATACGCACTCACCACCACTTTGTCATTTTGGCCACGGAGTCACCTAGTGCAG”, 9740 fluorescence intensity (a.u.).

On to “ATGTGTGTGGGATATTACGCTGCTAAAACTTTGTGTTTCTCGGAGTCACCTAGTGCAG”, for which the binding signal was 11700 fluorescence intensity (a.u.). Turning to “GCGACGGCGGTGGTGGTGGGGTGTGGACGGCTAGGGTTTACGGAGTCACCTAGTGCAG”, the binding signal was 13500 fluorescence intensity (a.u.). For the sequence “TAATTACGAACTCTATTATTTTCCTCCGATAATGCCCGCACGGAGTCACCTAGTGCAG”, the binding signal is 8150 fluorescence intensity (a.u.). In the case of “CTGCTGCTATGTTTTGATCTCGCAATTGCGTTTCGGGAGACGGAGTCACCTAGTGCAG”, the binding signal was 11300 fluorescence intensity (a.u.). As for “CTTTTTTTCCCTTGCAGCTACAGTGCGAATAGCAGCGAATCGGAGTCACCTAGTGCAG”, the binding signal was 8170 fluorescence intensity (a.u.). As to “CAACCCGCCACTCCACGAGTCTGGCGCTCTATCCTCCTTGCGGAGTCACCTAGTGCAG”, the binding signal is 10200 fluorescence intensity (a.u.). Take “GCTCTCTTGGCCTTTGGTTATCATGGTACATGTTTCCCTACGGAGTCACCTAGTGCAG”: the binding signal was 11600 fluorescence intensity (a.u.). In the case of “GTAGCGGCTGCGTTTCCTATTTTCCTTTTCTTTTTCTATTCGGAGTCACCTAGTGCAG”, the binding signal was 9520 fluorescence intensity (a.u.). Turning to “CTACTCATGGAACCCACCGGTCAGATCAATCTTCTTCCTCCGGAGTCACCTAGTGCAG”, the binding signal was 8290 fluorescence intensity (a.u.). For “TTGTGCAGTCTCATCTACCTGTGACGTTTACAGTTTTGACCGGAGTCACCTAGTGCAG”, the binding signal is 8840 fluorescence intensity (a.u.).

On to “TCACATTTCTTAAACGGTTAAACGGTATGTTTCTTTTATACGGAGTCACCTAGTGCAG”, for which the binding signal is 8920 fluorescence intensity (a.u.). Then “ACGTCATTGCCTACTTCCCATTTTCTTGTCCATAATGACACGGAGTCACCTAGTGCAG”, with 9050 fluorescence intensity (a.u.); and “ATCCCAAAACCCTACGCTGCCTCTGCCGCCGCCTCGCCGCCGGAGTCACCTAGTGCAG”, with 8970 fluorescence intensity (a.u.); and “ATTTTATTTGTCTGTTCGATAGTTTTCTTTGTTCACCTACCGGAGTCACCTAGTGCAG”, with 9640 fluorescence intensity (a.u.).

As to “ACTCTAGCTCATGCGCTCCCAGCCGCTGCCGCCGCTCGCCCGGAGTCACCTAGTGCAG”, the binding signal was 9270 fluorescence intensity (a.u.). With “TCTGTTCCGCTTCAGTTTTTATTGAATCTATACTATGTTTCGGAGTCACCTAGTGCAG”, the binding signal was 8220 fluorescence intensity (a.u.). On to “TCTGTTTATCCTTATCTATTTATCCTTCCCCTGGTTATCCCGGAGTCACCTAGTGCAG”, for which the binding signal was 10100 fluorescence intensity (a.u.).

Regarding “GTTCAATTTTTCGTTTTCAGTATTTGTATTGGGGTGCTGACGGAGTCACCTAGTGCAG”, the binding signal was 10800 fluorescence intensity (a.u.). Then “CGATTCGACCGTTGCCGCCTCGCCCGCTCCGCGCACGCGCCGGAGTCACCTAGTGCAG”, with 8930 fluorescence intensity (a.u.); and “ATGGCCGCCGCCCGTGGTTGCCTCGTCTCTCCGCCTACATCGGAGTCACCTAGTGCAG”, with 9510 fluorescence intensity (a.u.). As for “TCCTATAAGTCAACCTTATCGCTCTCTCGTCTCTTATCTTCGGAGTCACCTAGTGCAG”, the binding signal is 8880 fluorescence intensity (a.u.).

As to “ACTTTTTTTGCTGTGTGTGTGTGTGCATTTCGGTGCTCCACGGAGTCACCTAGTGCAG”, the binding signal is 8110 fluorescence intensity (a.u.).

Take “CGAACAGCGTCTCACGCGGCAGCGATGGCAGTGGGGCTCGCGGAGTCACCTAGTGCAG”: the binding signal is 9860 fluorescence intensity (a.u.). Consider “ACTGCGGATGCATCCATTGAACGAACCCATTCTGCATGTTCGGAGTCACCTAGTGCAG”, for which the binding signal is 8430 fluorescence intensity (a.u.).

“GGGCCTCGGCCAACCCCACCTGGGCCGGATTGTTATCATACGGAGTCACCTAGTGCAG”: the binding signal was 9120 fluorescence intensity (a.u.).

As for “GGGTGGTGTGTGTGAGAGTGAGTAACGAAGGCTTGAGGTTCGGAGTCACCTAGTGCAG”, the binding signal is 9880 fluorescence intensity (a.u.). In the case of “TTCTAAATTTGAAACGGTTTTATGACTTCTTTTCAGCGTTCGGAGTCACCTAGTGCAG”, the binding signal was 8520 fluorescence intensity (a.u.). As to “GTTTGTCTTCACGTCCTTTTCTTTTGCTTCAAATACGTTTCGGAGTCACCTAGTGCAG”, the binding signal was 12800 fluorescence intensity (a.u.). Consider “TTCGGGGAGGGTTTTCGGGGACAGCAGCTGCGGGCTTAAACGGAGTCACCTAGTGCAG”, for which the binding signal was 18700 fluorescence intensity (a.u.). For the sequence “CCCCGACTCTCTTCTTACGCACACCAATAGCATCGAGTACCGGAGTCACCTAGTGCAG”, the binding signal is 11000 fluorescence intensity (a.u.). As for “TCTTCGCAACTCCAAACTTCCCGAGCATCTTATCTTTGCACGGAGTCACCTAGTGCAG”, the binding signal is 8990 fluorescence intensity (a.u.). Turning to “TCATCAGTTTCTTCACATTTGCTATTCTCCGTTTATTTCCCGGAGTCACCTAGTGCAG”, the binding signal is 12600 fluorescence intensity (a.u.).

Consider “TGGCTTGTTTCACCTCTCCTATTGCATGCACCGCATCTCTCGGAGTCACCTAGTGCAG”, for which the binding signal is 9940 fluorescence intensity (a.u.). Consider “TCCCGTCTGCCGCCGGCGCCGATCTCCATCCTGCGAGCAGCGGAGTCACCTAGTGCAG”, for which the binding signal was 8350 fluorescence intensity (a.u.). Then “TGACAGCGACCCACTCGCCCAACACTCCGCCGCTCCATTTCGGAGTCACCTAGTGCAG”, with 8030 fluorescence intensity (a.u.).

The values above are taken from article PMC7819943, “Rice protein-binding microarrays: a tool to detect cis-acting elements near promoter regions in rice”.
